In PMC5386688:
No constants are given. Whether binding was seen depends on the method and setting. In cells and extracts the contact can be indirect. Some binding calls cover weakened binding; strength is not graded here. For part of these data: Sequences can lack the tags named with a protein.

By UniProt entry, the sequences of proteins in these tests, tags left out.
UniProt P10415: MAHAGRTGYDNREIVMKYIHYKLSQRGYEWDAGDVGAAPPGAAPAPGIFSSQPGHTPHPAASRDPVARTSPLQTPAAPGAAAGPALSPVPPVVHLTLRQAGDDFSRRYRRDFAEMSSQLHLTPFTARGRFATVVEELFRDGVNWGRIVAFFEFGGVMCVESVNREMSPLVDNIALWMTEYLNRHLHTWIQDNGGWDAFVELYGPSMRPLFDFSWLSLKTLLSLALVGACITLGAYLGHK

What was measured:
[1] = target: T1, Heterogeneous nuclear protein L (HnRNP-L), endogenous in PC3 cells (human (endogenous in PC3)) (UniProt P14866); assay: co-IP; PC3 cell lysate; anti-HnRNP L (Abcam, ab6106), anti-bcl-2 or IgG antibody at 4°C overnight, protein A/G beads; western blot; reciprocal; IgG group as negative control
T1 sequence: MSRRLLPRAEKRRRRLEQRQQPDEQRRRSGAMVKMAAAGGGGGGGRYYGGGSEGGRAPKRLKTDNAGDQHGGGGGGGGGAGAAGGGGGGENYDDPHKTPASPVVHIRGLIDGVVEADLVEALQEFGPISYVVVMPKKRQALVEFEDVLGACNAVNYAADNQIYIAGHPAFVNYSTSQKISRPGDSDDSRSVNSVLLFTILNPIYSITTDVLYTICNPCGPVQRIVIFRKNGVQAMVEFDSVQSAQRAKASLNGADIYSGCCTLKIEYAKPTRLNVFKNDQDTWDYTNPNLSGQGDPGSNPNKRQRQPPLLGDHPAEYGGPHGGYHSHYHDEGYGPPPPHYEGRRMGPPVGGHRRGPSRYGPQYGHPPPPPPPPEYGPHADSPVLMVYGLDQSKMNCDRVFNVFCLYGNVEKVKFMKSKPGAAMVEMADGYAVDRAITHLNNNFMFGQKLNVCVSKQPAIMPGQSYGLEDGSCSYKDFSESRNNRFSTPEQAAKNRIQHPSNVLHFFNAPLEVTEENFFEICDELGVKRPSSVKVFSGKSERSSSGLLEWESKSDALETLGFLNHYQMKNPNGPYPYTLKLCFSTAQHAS

[2] = target: BCL-2, endogenous in PC3 cells (human (endogenous in PC3)) (UniProt P10415); assay: as above
GST-tagged BCL-2 = GST-tagged BCL-2 (UniProt P10415); assay: pull-down; lysates of bacteria expressing His-tagged HnRNP-L or GST-tagged BCL-2; tag beads added to one lysate for 8 hours at 4°C, then equal volume of the other lysate overnight at 4°C; beads washed with ice-cold PBS four times; western blot; input and tag-purification groups as controls

BCL-2, endogenous in PC3 cells (from UniProt P10415 1-239)
binding [1]: binds

B1: Heterogeneous nuclear protein L (HnRNP-L), endogenous in PC3 cells (protein, UniProt P14866 1-589)
chain: MSRRLLPRAEKRRRRLEQRQQPDEQRRRSGAMVKMAAAGGGGGGGRYYGGGSEGGRAPKRLKTDNAGDQHGGGGGGGGGAGAAGGGGGGENYDDPHKTPASPVVHIRGLIDGVVEADLVEALQEFGPISYVVVMPKKRQALVEFEDVLGACNAVNYAADNQIYIAGHPAFVNYSTSQKISRPGDSDDSRSVNSVLLFTILNPIYSITTDVLYTICNPCGPVQRIVIFRKNGVQAMVEFDSVQSAQRAKASLNGADIYSGCCTLKIEYAKPTRLNVFKNDQDTWDYTNPNLSGQGDPGSNPNKRQRQPPLLGDHPAEYGGPHGGYHSHYHDEGYGPPPPHYEGRRMGPPVGGHRRGPSRYGPQYGHPPPPPPPPEYGPHADSPVLMVYGLDQSKMNCDRVFNVFCLYGNVEKVKFMKSKPGAAMVEMADGYAVDRAITHLNNNFMFGQKLNVCVSKQPAIMPGQSYGLEDGSCSYKDFSESRNNRFSTPEQAAKNRIQHPSNVLHFFNAPLEVTEENFFEICDELGVKRPSSVKVFSGKSERSSSGLLEWESKSDALETLGFLNHYQMKNPNGPYPYTLKLCFSTAQHAS
binding [2]: binds

B2: His-tagged HnRNP-L (protein, UniProt P14866 1-589)
chain: MSRRLLPRAEKRRRRLEQRQQPDEQRRRSGAMVKMAAAGGGGGGGRYYGGGSEGGRAPKRLKTDNAGDQHGGGGGGGGGAGAAGGGGGGENYDDPHKTPASPVVHIRGLIDGVVEADLVEALQEFGPISYVVVMPKKRQALVEFEDVLGACNAVNYAADNQIYIAGHPAFVNYSTSQKISRPGDSDDSRSVNSVLLFTILNPIYSITTDVLYTICNPCGPVQRIVIFRKNGVQAMVEFDSVQSAQRAKASLNGADIYSGCCTLKIEYAKPTRLNVFKNDQDTWDYTNPNLSGQGDPGSNPNKRQRQPPLLGDHPAEYGGPHGGYHSHYHDEGYGPPPPHYEGRRMGPPVGGHRRGPSRYGPQYGHPPPPPPPPEYGPHADSPVLMVYGLDQSKMNCDRVFNVFCLYGNVEKVKFMKSKPGAAMVEMADGYAVDRAITHLNNNFMFGQKLNVCVSKQPAIMPGQSYGLEDGSCSYKDFSESRNNRFSTPEQAAKNRIQHPSNVLHFFNAPLEVTEENFFEICDELGVKRPSSVKVFSGKSERSSSGLLEWESKSDALETLGFLNHYQMKNPNGPYPYTLKLCFSTAQHAS
binding (GST-tagged BCL-2): binds
